Laboratory results published in the supplement of paper PMC3334620.
The full ranking holds about 33,000 sequences; the median of “E-score (-0.5 to 0.5)” is about -0.015, and the highest 2% start at about 0.3. This is one part of the list.

These sequences were tested against T1, Abf1 (UniProt P14164) (assay: PBM E-score (8-mer binding enrichment) (E-score (-0.5 to 0.5)); higher = stronger / more preferred TF binding). Conditions: protein concentration: 200 nM; construct: GST-full length.
T1 sequence: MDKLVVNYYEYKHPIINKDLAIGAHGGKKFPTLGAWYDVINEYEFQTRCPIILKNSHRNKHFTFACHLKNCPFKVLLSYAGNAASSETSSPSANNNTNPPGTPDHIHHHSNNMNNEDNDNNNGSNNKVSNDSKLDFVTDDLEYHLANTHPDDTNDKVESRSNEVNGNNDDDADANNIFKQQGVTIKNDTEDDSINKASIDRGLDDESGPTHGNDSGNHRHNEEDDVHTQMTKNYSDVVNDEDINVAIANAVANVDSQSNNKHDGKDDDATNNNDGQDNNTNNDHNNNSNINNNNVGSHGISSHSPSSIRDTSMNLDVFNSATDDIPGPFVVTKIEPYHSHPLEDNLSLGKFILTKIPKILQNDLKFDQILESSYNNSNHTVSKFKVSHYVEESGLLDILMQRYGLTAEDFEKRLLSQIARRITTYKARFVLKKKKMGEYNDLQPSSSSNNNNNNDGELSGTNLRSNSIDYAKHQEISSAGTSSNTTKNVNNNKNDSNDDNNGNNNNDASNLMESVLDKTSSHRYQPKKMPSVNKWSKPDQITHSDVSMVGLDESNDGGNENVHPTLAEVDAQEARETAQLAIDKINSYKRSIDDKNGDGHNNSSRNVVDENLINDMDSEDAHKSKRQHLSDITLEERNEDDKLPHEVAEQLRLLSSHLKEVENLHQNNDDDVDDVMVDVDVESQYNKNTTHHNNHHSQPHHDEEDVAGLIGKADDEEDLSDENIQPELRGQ
Outline: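 The E-score, a modified Wilcoxon-Mann-Whitney statistic, was computed by the Universal PBM Analysis Suite for every ungapped eight-base word pooled with its reverse complement. Scans behind it were normalised with masliner after bound GST-tagged yeast transcription factors were detected with fluorescent anti-GST. The proteins, at about 100-200 nM, had been applied to universal all-10-mer Agilent arrays made double-stranded by primer extension.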

Sequence	PBM E-score
ACGGGGGC	-0.166
CGTGATTC	0.166
TCGCCACA	0.122
CGCCACAA	-0.029
ACTCCCCT	-0.0144
GATCCTAC	0.13
CAAAGTGC	-0.00433
AGGTGTAA	0.0121
ATCTCTGG	-0.127
CGCTGGTC	-0.178
ATCGCGAT	0.411
TGGTGACA	0.357
CCAGACAG	-0.2
CCAACAGC	-0.209
GAGGCGGA	-0.136
ATCTGGCG	-0.0132
ACTCGTAA	0.173
CCTGTTAG	-0.0285
CATATATC	0.133
AAGTACCC	-0.234
CGTGAATA	0.179
GACCTTAC	-0.00555
ACCCCAAG	-0.241
ATCGGACA	-0.0283
CGGAAGCA	0.105

Sequence	PBM E-score
ATTGGCGG	0.00549
CCCGGTGC	-0.306
CCCTATAC	0.111
AAGATCTA	-0.042
AACGTCCA	0.0678
TCCGCAAA	-0.171
GCGGCTGA	-0.23
CGGATTAG	0.148
CCAACGGC	-0.0507
GTTATAGA	0.116
AAAAAATG	0.203
CGGCGGTA	0.0868
GGGAAGGA	-0.183
ATGGAGCG	0.0862
ATCTAACA	0.183
GGAGTCCC	-0.156
CCTATACG	0.244
TAGTTCAA	-0.0129
AGTGGTCG	-0.122
TAGTGAGA	0.0964
AACTCACG	0.132
CAAATAAC	0.183
AATCAACT	0.0462
TAGAAGAA	-0.0339
AGTTTTAT	0.158

Sequence	PBM E-score
CCGAAGTA	-0.159
CGCCATAC	-0.00106
CAATGCCA	-0.0118
CGTTCTTA	0.181
ACATCGCC	0.0117
AACCATTC	-0.0388
GGGGCGAC	-0.213
CGTACGCA	0.217
TCCTGCAA	-0.0922
CGACATAG	0.0712
TGGCATAA	0.151
AAAAATTG	0.131
AAAGGACG	-0.00645
CTGGAGAC	-0.105
TGACTGCA	-0.0999
ATATAAAG	0.146
GGCGCATA	0.0602
TGCATCAA	0.00549
TGGCCTAA	-0.0262
AACCGTCT	-0.0069
ATCATCCA	0.232
CATGAGAC	0.0408
CTCTGAAG	-0.207
CAAGACCG	-0.137
ACTGCCTC	-0.111

Sequence	PBM E-score
GATAGTAA	-0.0163
GTCAAAAC	0.129
TATGTACA	-0.00779
AAAGCCAC	-0.0309
AGGCCCGC	-0.16
CACATCGC	0.0644
AAAACGTC	0.154
GTGAGCTA	-0.0446
CCCACTAG	-0.274
TCAGATGA	0.0431
GTAGGTGA	0.132
CGTAAGCC	0.0656
AGGGGCCA	-0.172
CGATGGCC	0.0627
CTCGACTA	-0.0531
AGTAATAG	0.0165
GCAGTACC	-0.138
CAGGGCAC	-0.125
AAGCGACG	0.0184
AACTCAAA	0.0455
ATCTGTAG	-0.0843
GCCACAGC	-0.0459
TACACGGA	0.329
AGATTGTA	0.0406
AAAAAGCC	0.0341

Sequence	PBM E-score
TATCTAAA	-0.00462
ATGGGGAG	-0.163
GGTTTCGA	-0.156
GCGCTCTA	-0.0693
TAACGCGA	0.179
CCGGTAAG	-0.0289
TGACGAAA	0.349
CTGTACAA	0.109
TACGGAGA	0.189
GATCGCGA	0.315
ACCTCTAT	-0.00449
ACTGACTA	0.0147
AAGCCGAA	-0.174
GTTTAATA	0.214
AAAACCTA	0.0977
CCGTACCC	0.267
CGCCGCCA	-0.114
AAGTAAAA	-0.128
TCCGGACA	0.0355
TACCTATA	0.0659
AATCCAAG	0.131
GCCACTAA	-0.149
ACTCGGCA	-0.0488
GCTCGTAA	0.118
AAGTGTCA	0.0251

6 records drawn at random from the list so far, as already listed:
Sequence	PBM E-score
TATCTAAA	-0.00462
AAGCCGAA	-0.174
AAGTGTCA	0.0251
AATCCAAG	0.131
GCTCGTAA	0.118
GCGCTCTA	-0.0693

The listing continues.

Sequence	PBM E-score
GCACACAA	-0.00644
ACAAAAGC	-0.0295
GTGCTCCA	0.0884
CAAATGTG	0.122
AAGTGAAC	-0.121
AGGGAGAT	-0.148
AACGCTGC	-0.111
ATGATACC	0.291
GTACCTTA	0.0335
CAATGCAA	0.056
GCCTAACA	-0.02
ATTGGAAA	0.0769
AGTAAAAT	-0.0296
TATCAATA	0.0589
AACCACAC	0.0548
CTGACAGA	0.0348
CGGAGACC	-0.257
CTATTAAG	-0.0925
CGGGCTCA	-0.165
AAGCATCC	-0.115
TCACGGAA	0.261
AGCCGCCA	-0.255
AGGCGATA	0.0263
GTGTTACA	-0.0527
AAACGCTA	-0.201

Sequence	PBM E-score
GACGACAA	0.347
CGTCAGAG	0.0129
GCCGTAGC	0.0651
CCTACAAA	-0.00335
GCACCACC	-0.264
ATGTCCCG	-0.00557
CACTGGCG	-0.0444
GGGCCTAC	-0.304
CAATACAC	0.0116
ACCCGAGA	-0.138
AGACCCGG	-0.273
CGGTGAGA	0.149
ACTGTGCT	0.113
ACCCATTG	-0.116
ACGTTGCC	-0.156
GCAACCAC	-0.0578
CTGGTCTC	-0.207
GAACTGAC	-0.00514
AGTTGGAG	0.0751
CCACTAAA	-0.22
ACAACGCA	-0.00182
CCTAGAAC	0.0754
